Measured values: patent US4086221A (Toyo Jozo Kabushiki Kaisha, priority 1975, dated 1978)
The star is where a group is joined. Tos = Cc1ccc(S(=O)(=O)*)cc1; Boc = CC(C)(C)OC(=O)*; OBn = c1ccc(CO*)cc1; Bn = c1ccc(C*)cc1

Test: general procedure: solution-phase peptide synthesis; WSC/HOBT; DCC/HOSU; DCC/HOBT; active esters (OSU, ONP); azide method
Settings: coupling step

First: Boc-T(Bn)D(OBn)VGAGT(Bn)P-NH2
Second: Boc-QT(Bn)Y(Bn)PR(Tos)T(Bn)D(OBn)VGAGT(Bn)P-NH2
The step yield of the first is lower: 77.1% for the first, 82.9% for the second.

“AOC-Arg(Tos)-Thr(Bzl)-Asp(OBzl)-Val-Gly-Ala-Gly-Thr(Bzl)-Pro-Nh2” gave a step yield of 82.7%.
